The target in this experiment is SUMO1-HA (UniProt P63165). Description: co-IP; HEK-DAT cells transfected with SUMO1-HA; fresh lysate in RIPA buffer with 20 mM NEM and protease inhibitors; immunoprecipitated with rabbit anti-SUMO1 (rabbit IgG as control), 4°C overnight; blotted with anti-HA and anti-DAT (MAB).

Protein sequences, listed by entry. Tags and fused reporters are not part of them. Residues count along the entry.
UniProt P63165, residues 1-97: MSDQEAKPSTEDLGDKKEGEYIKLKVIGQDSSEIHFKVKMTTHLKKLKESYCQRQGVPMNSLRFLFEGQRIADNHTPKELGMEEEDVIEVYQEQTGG
UniProt Q01959: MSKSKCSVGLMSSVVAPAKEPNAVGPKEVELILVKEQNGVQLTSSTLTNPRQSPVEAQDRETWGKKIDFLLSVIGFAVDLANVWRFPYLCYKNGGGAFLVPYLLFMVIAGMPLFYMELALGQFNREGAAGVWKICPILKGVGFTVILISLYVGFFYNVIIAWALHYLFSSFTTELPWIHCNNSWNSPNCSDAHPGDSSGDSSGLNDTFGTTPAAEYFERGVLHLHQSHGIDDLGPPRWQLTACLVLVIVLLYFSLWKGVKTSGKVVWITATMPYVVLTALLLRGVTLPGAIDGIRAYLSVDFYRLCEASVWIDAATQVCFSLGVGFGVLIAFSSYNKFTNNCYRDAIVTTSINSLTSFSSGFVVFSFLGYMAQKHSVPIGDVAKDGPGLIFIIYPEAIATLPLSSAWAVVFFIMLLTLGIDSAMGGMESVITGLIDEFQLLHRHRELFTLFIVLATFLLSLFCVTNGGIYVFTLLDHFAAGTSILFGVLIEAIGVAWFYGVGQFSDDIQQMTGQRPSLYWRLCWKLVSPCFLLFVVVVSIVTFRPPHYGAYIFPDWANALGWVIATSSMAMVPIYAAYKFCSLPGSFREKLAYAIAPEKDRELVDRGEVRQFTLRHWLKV

Our source for the binding values is publication PMC6386010.

No constants are given. Whether binding was seen depends on the method and setting. In cells and extracts the contact can be indirect. Some entries that bind do so weakly or less than the wild type.

On to “dopamine transporter (DAT), stably expressed in HEK-293 cells (HEK-DAT) (from UniProt Q01959 1-620)”, for which the binding result is “binds”.
